Protein sequences can lack the tags named with them.
Molecular target: T1, ChroM1 DNA-binding domain recombinant protein (rP, residues 2333-2480) (Homo sapiens) (UniProt Q3L8U1)
T1 sequence: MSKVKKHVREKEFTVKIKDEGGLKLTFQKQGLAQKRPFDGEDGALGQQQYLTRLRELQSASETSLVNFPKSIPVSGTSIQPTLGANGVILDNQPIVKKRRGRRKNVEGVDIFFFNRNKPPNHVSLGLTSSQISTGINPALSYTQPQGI
Test: EMSA
Details: binding reduced by distamycin A; purified recombinant protein

“CGCATGATATACTTCACCTATTTTTTGTCTCCTTAATATGTATATATATATATATATATATATATATATATATATATATATATATATATATACACATATATGTGTGTGTGTATGTGCGTGTGCATGTTTAACTTTTAATTCAGTTAAAAACTTTTTTCTATTTGTTTTTCATCTGGATATTTGATTCTGCATATCCTAGCCCAA (double strand) [ERalpha distal promoter PCR fragment (204 bp)]”: binds.

Reference: patent publication US20050250717, “Chromatin remodeling protein as a marker expressed by stromal progenitor cells” (Ramot AT Tel Aviv University Ltd., published 2005)
